# Results of single-concentration screens

Amino acid sequences for entries named in this document (tags omitted). Residues count along the entry.
UniProt A4I591, 1-473: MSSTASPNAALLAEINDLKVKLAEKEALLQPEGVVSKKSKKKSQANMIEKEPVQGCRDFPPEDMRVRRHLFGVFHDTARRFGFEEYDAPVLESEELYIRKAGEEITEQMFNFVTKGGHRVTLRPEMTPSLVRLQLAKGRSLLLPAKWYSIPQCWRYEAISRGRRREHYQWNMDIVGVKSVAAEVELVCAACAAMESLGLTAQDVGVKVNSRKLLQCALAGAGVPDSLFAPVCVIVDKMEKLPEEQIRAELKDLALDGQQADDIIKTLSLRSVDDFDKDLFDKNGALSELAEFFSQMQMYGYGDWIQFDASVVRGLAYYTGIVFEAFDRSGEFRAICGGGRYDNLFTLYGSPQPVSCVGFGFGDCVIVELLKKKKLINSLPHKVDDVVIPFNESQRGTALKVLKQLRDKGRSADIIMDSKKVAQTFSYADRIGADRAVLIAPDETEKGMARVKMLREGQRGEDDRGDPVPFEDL
UniProt Q8IDJ8, 1-583: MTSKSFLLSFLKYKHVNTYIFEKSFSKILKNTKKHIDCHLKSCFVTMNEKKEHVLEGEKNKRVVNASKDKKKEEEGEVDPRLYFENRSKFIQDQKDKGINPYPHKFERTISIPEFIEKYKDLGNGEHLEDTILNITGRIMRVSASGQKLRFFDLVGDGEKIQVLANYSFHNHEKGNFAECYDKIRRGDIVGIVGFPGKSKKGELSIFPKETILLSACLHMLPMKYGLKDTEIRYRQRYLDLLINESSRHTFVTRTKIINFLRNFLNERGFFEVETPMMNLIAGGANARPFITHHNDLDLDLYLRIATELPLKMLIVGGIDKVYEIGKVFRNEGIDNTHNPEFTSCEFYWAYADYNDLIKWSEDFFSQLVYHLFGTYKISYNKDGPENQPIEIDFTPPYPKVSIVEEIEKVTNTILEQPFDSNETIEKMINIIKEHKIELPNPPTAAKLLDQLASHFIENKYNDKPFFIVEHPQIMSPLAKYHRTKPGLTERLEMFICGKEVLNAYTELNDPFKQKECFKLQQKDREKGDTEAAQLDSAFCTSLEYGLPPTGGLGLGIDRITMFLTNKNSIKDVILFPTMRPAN
UniProt Q4DA54, 1-478: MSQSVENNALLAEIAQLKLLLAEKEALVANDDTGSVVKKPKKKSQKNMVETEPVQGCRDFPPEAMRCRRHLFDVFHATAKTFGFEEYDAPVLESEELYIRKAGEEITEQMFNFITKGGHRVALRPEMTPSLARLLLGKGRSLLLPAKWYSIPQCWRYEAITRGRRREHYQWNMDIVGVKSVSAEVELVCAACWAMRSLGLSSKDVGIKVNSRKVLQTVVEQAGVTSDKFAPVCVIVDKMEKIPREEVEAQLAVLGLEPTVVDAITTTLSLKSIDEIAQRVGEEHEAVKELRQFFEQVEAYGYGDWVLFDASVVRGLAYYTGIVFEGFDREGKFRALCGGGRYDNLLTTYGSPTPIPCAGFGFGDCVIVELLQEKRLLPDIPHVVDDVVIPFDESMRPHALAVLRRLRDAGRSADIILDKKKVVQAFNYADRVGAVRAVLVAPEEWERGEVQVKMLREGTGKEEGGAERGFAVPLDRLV

Data taken from ChEMBL document CHEMBL3988442, “University of Dundee, Small-Polar-MMV Screening Library” (2021).

A: 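Histidine-tRNA ligase, Leishmania infantum (UniProt A4I591). Enzyme assay of histidyl-tRNA synthetase; the read-out is not stated. Compounds at 30 µM. The record gives no direction; compounds that gave an IC50 in retests scored well above the rest, so higher reads as stronger inhibition. The assay is labelled LdHisRS but filed under L. infantum. About 69,000 compounds were tested under these conditions; 0.6% (about 410) showed 50% or more at least once.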
B: 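Lysine-tRNA ligase, Plasmodium falciparum 3D7 (UniProt Q8IDJ8). Enzyme assay of the cytosolic lysyl-tRNA synthetase in 384-well plates, read by luminescence. Compounds at 30 µM. Direction is inferred from only a few compounds that gave an IC50; most scored high, so higher reads as stronger inhibition. Size under these conditions: about 69,000 compounds, about 49 of them at 50% or above in at least one test.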
C: 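Histidine-tRNA ligase, Trypanosoma cruzi CL Brener (UniProt Q4DA54). Enzyme assay of histidyl-tRNA synthetase; the read-out is not stated. Tested at 30 µM. Higher reads as stronger inhibition (inferred: compounds with an IC50 in retests scored well above the rest). Of about 69,000 compounds tested this way, about 31 (0.045%) reached 50% or more in at least one test.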

Each number is a percent effect as filed.
The controls that fix the scale are not given in the record; negative values are as filed.
The compounds are a random part of those screened.

For Cc1nnsc1CN1C[C@@H]2CC[C@H](C1)N(Cc1c(C)noc1C)C2=O the result was A: 6.061%; B: 6.751%; C: -1.058%. With CC(C)OCCN1CCN(C(=O)c2cc(-n3cccn3)ccn2)CC1 the screen gave A: 11.43%; B: -2.109%; C: 9.091%. Cc1nn(CCC(=O)N2CCN(Cc3cnn(C)c3C)CC2)c(C)c1Br read A: -5.495%; B: -0.4119%; C: 1.98%. For CCn1cnnc1CN(C)c1nccc(C2CCCC2)n1 the result was A: 14.47%; B: 5.889%; C: 7.389%. O=C(c1ccoc1)N1CC[C@H]2OCC[C@@]2(COc2ncccc2F)C1 gave A: 24.53%; B: -1.434%; C: 1.695%. F[C@@H]1CN(CC2CCCCC2)C[C@@H]1OCc1nc2ccccc2o1 gave A: 20.27%; B: 6.961%; C: 4.348%.

Result for COc1ccnc(N2CCN(CC(=O)N3CCC(C)CC3)CC2)n1 was A: 18.42%; B: 2.858%; C: 6.936%. O=C1COC2(COCCN(Cc3cccnc3)C2)CN1c1ccccc1 (configuration not stated) read A: -2.655%; B: -1.728%; C: 2.151%. Result for CCN(C(=O)c1cc(C)oc1C)C1CC1 was A: 16.46%; B: 6.448%; C: 1.293%. CN1CCC(c2n[nH]c(=O)n2-c2cccc(Cl)c2)CC1 gave A: 11.76%; B: 2.171%; C: 4.938%. COCC(=O)N1CC[C@H]2C[C@H](C)O[C@@H]2C1 read A: 13.87%; B: 1.966%; C: 3.825%. CNC(=O)C1CCN(C(=O)NCc2ccc(-c3ccn[nH]3)cc2)CC1 read A: 11.61%; B: 1.695%; C: 2.89%.

With Cc1ncc(C(=O)N2CCCC(n3nc(C)nc3C)C2)c(C(C)C)n1 (configuration not stated) the screen gave A: 0%; B: -0.6404%; C: 4.118%. With CC(C)[C@@H]1CN(c2ncc(F)cn2)C[C@H]1NS(=O)(=O)N(C)C the screen gave A: 2.041%; B: 3.869%; C: 7%. COc1ccc(CN2C[C@@H]3OCCN(c4ncccn4)[C@@H]3C2)cc1 gave A: 2.19%; B: -4.921%; C: 2.732%. CNC(=O)CS(=O)(=O)Cc1cc(Cl)c2c(c1)OCCO2 read A: 11.86%; B: 0.1315%; C: 6.286%. For COCCn1cc(C(=O)N2CCCC2c2cc(C)no2)ccc1=O (configuration not stated) the result was A: 19.23%; B: -1.92%; C: 0.8333%. For CCCn1nccc1C(=O)N1CCN(C(=O)C2CC2)[C@@H]2CS(=O)(=O)C[C@@H]21 the result was A: 0%; B: 7.252%; C: 1.117%.

Result for CC(C)CC(=O)N1CC(=O)c2sc(Nc3ccc(F)cc3)nc2C1 was A: 11.43%; B: 3.164%; C: -10.17%. CC(=O)N1CCC2(CC1)CCN(S(=O)(=O)c1ccccc1)C2 gave A: -1.923%; B: -3.909%; C: 2.913%. Result for Cc1ccc(CNC(=O)Cn2ncc3c2c(C)nn3C)cc1 was A: 13.59%; B: -3.603%; C: 2.732%. Result for Cc1cnc(C(=O)NCC(c2ccc(C)o2)N2CCOCC2)cn1 (configuration not stated) was A: -4.11%; B: 4.211%; C: 4.926%. O=C(CN1CC(n2cccn2)C1)NCCc1c[nH]c2ccccc12 read A: 6.154%; B: -0.7225%; C: -6.513%. Result for Cc1cnc(N)c(C(=O)C2CCN(C(=O)c3cnc(C)cn3)CC2)c1 was A: 0%; B: 1.909%; C: 1.498%.

With CCC(=O)NCC(c1ccc(SC)cc1)N1CCc2sccc2C1 (configuration not stated) the screen gave A: 6.849%; B: 0.1051%; C: 4%. O=C(NCCc1ccccn1)NC1CCN(c2ccccc2)C1=O (configuration not stated) gave A: 6.612%; B: 3.177%; C: 1.02%. Cc1cc(C)cc(NC(=O)c2cnc(N3CCN(C)CC3)nc2C)c1 gave A: 16.3%; B: 1.333%; C: 2.97%.

Some entries from above, unchanged:

- COc1ccc(CN2C[C@@H]3OCCN(c4ncccn4)[C@@H]3C2)cc1 | A: 2.19%; B: -4.921%; C: 2.732%
- Cc1cnc(C(=O)NCC(c2ccc(C)o2)N2CCOCC2)cn1 (configuration not stated) | A: -4.11%; B: 4.211%; C: 4.926%
- CCN(C(=O)c1cc(C)oc1C)C1CC1 | A: 16.46%; B: 6.448%; C: 1.293%